# Test results published in the supplement of paper PMC10077471.
# The full ranking holds about 1,900 compounds; the median of “excess over highest single agent (ExcessHSA) synergy score, 6x6 matrix” is about -83, and the lowest 2% start at about -370. This is one part of the list.
# System: NCI-H446
# Experiment: excess over highest single agent (ExcessHSA) synergy score, 6x6 matrix; higher = less synergy (more negative = stronger synergy)
# Settings: 72 h; CellTiter-Glo viability
row,SMILES,excess over highest single agent
1,N#CN=C(NCCCCCCOc1ccc(Cl)cc1)Nc1ccncc1 + Cc1sc2c(c1C)C(c1ccc(Cl)cc1)=N[C@@H](CC(=O)OC(C)(C)C)c1nnc(C)n1-2 [NCGC00250412-19],-32.9
2,C[C@]12Cc3c[nH]nc3C[C@@H]1CC[C@@H]1[C@@H]2CC[C@@]2(C)[C@H]1CC[C@]2(C)O + Cc1sc2c(c1C)C(c1ccc(Cl)cc1)=N[C@@H](CC(=O)OC(C)(C)C)c1nnc(C)n1-2 [NCGC00250412-19],-76.1
3,Nc1nc(-c2nn(Cc3ccccc3F)c3ncccc23)nc(N)c1N1CCOCC1 + Cc1sc2c(c1C)C(c1ccc(Cl)cc1)=N[C@@H](CC(=O)OC(C)(C)C)c1nnc(C)n1-2 [NCGC00250412-19],-149
4,C[C@@H]1CN(c2c(F)c(N)c3c(=O)c(C(=O)O)cn(C4CC4)c3c2F)C[C@H](C)N1 + Cc1sc2c(c1C)C(c1ccc(Cl)cc1)=N[C@@H](CC(=O)OC(C)(C)C)c1nnc(C)n1-2 [NCGC00250412-19],-84
5,CCOc1cc2ncc(C#N)c(Nc3ccc(OCc4ccccn4)c(Cl)c3)c2cc1NC(=O)/C=C/CN(C)C + Cc1sc2c(c1C)C(c1ccc(Cl)cc1)=N[C@@H](CC(=O)OC(C)(C)C)c1nnc(C)n1-2 [NCGC00250412-19],-193
6,CC(C)C[C@H](CN)CC(=O)O + Cc1sc2c(c1C)C(c1ccc(Cl)cc1)=N[C@@H](CC(=O)OC(C)(C)C)c1nnc(C)n1-2 [NCGC00250412-19],82.6
7,Cc1cn([C@@H]2C[C@@H](O)[C@H](CO)O2)c(=O)[nH]c1=O + Cc1sc2c(c1C)C(c1ccc(Cl)cc1)=N[C@@H](CC(=O)OC(C)(C)C)c1nnc(C)n1-2 [NCGC00250412-19],21.8
8,NC(=O)c1ncn([C@@H]2O[C@H](CO)[C@@H](O)[C@H]2O)c1O + Cc1sc2c(c1C)C(c1ccc(Cl)cc1)=N[C@@H](CC(=O)OC(C)(C)C)c1nnc(C)n1-2 [NCGC00250412-19],-11
9,CCc1cc(C(N)=S)ccn1 + Cc1sc2c(c1C)C(c1ccc(Cl)cc1)=N[C@@H](CC(=O)OC(C)(C)C)c1nnc(C)n1-2 [NCGC00250412-19],-36.8
10,Cc1ccc(C(=O)Nc2ccc(S(=O)(=O)O)c3cc(S(=O)(=O)O)cc(S(=O)(=O)O)c23)cc1NC(=O)c1cccc(NC(=O)Nc2cccc(C(=O)Nc3cc(C(=O)Nc4ccc(S(=O)(=O)O)c5cc(S(=O)(=O)O)cc(S(=O)(=O)O)c45)ccc3C)c2)c1 + Cc1sc2c(c1C)C(c1ccc(Cl)cc1)=N[C@@H](CC(=O)OC(C)(C)C)c1nnc(C)n1-2 [NCGC00250412-19],16.8
11,N#CC(c1ccnc(NCCc2cccnc2)n1)c1nc2ccccc2s1 (stereo unspecified) + Cc1sc2c(c1C)C(c1ccc(Cl)cc1)=N[C@@H](CC(=O)OC(C)(C)C)c1nnc(C)n1-2 [NCGC00250412-19],4.27
12,C[C@H]1[C@H](NC(=O)/C(=N\OC(C)(C)C(=O)O)c2csc(N)n2)C(=O)N1S(=O)(=O)O + Cc1sc2c(c1C)C(c1ccc(Cl)cc1)=N[C@@H](CC(=O)OC(C)(C)C)c1nnc(C)n1-2 [NCGC00250412-19],-133
13,OC[C@H]1O[C@@H](OCCc2ccc(O)cc2)[C@H](O)[C@@H](O)[C@@H]1O + Cc1sc2c(c1C)C(c1ccc(Cl)cc1)=N[C@@H](CC(=O)OC(C)(C)C)c1nnc(C)n1-2 [NCGC00250412-19],-24.5
14,CCc1c2c(nc3ccc(OC(=O)N4CCC(N5CCCCC5)CC4)cc13)-c1cc3c(c(=O)n1C2)COC(=O)[C@]3(O)CC + Cc1sc2c(c1C)C(c1ccc(Cl)cc1)=N[C@@H](CC(=O)OC(C)(C)C)c1nnc(C)n1-2 [NCGC00250412-19],-249
15,C=C1/C(=C\C=C2/CCC[C@]3(C)[C@@H]([C@H](C)CCCC(C)(C)O)CC[C@@H]23)C[C@@H](O)C[C@@H]1O + Cc1sc2c(c1C)C(c1ccc(Cl)cc1)=N[C@@H](CC(=O)OC(C)(C)C)c1nnc(C)n1-2 [NCGC00250412-19],297
16,Oc1ccc([C@@H]2Oc3ccc(O)cc3[C@@H]3CCC[C@@H]32)cc1 + Cc1sc2c(c1C)C(c1ccc(Cl)cc1)=N[C@@H](CC(=O)OC(C)(C)C)c1nnc(C)n1-2 [NCGC00250412-19],-48.9
17,Cn1c2cc([S+](C)[O-])sc2c2cnn(Cc3cccc(N)c3)c(=O)c21 (stereo unspecified) + Cc1sc2c(c1C)C(c1ccc(Cl)cc1)=N[C@@H](CC(=O)OC(C)(C)C)c1nnc(C)n1-2 [NCGC00250412-19],-110
18,CCC[C@H](NC(=O)/C(C#N)=C/c1cccc(Br)n1)c1ccccc1 + Cc1sc2c(c1C)C(c1ccc(Cl)cc1)=N[C@@H](CC(=O)OC(C)(C)C)c1nnc(C)n1-2 [NCGC00250412-19],-190

# As a short view, some entries already given.
row,SMILES,excess over highest single agent
13,OC[C@H]1O[C@@H](OCCc2ccc(O)cc2)[C@H](O)[C@@H](O)[C@@H]1O + Cc1sc2c(c1C)C(c1ccc(Cl)cc1)=N[C@@H](CC(=O)OC(C)(C)C)c1nnc(C)n1-2 [NCGC00250412-19],-24.5
14,CCc1c2c(nc3ccc(OC(=O)N4CCC(N5CCCCC5)CC4)cc13)-c1cc3c(c(=O)n1C2)COC(=O)[C@]3(O)CC + Cc1sc2c(c1C)C(c1ccc(Cl)cc1)=N[C@@H](CC(=O)OC(C)(C)C)c1nnc(C)n1-2 [NCGC00250412-19],-249
15,C=C1/C(=C\C=C2/CCC[C@]3(C)[C@@H]([C@H](C)CCCC(C)(C)O)CC[C@@H]23)C[C@@H](O)C[C@@H]1O + Cc1sc2c(c1C)C(c1ccc(Cl)cc1)=N[C@@H](CC(=O)OC(C)(C)C)c1nnc(C)n1-2 [NCGC00250412-19],297

# Remaining list, next part:

row,SMILES,excess over highest single agent
1,C[C@@H](Oc1ccc2[nH]nc(/C=C/c3cnn(CCO)c3)c2c1)c1c(Cl)cncc1Cl + Cc1sc2c(c1C)C(c1ccc(Cl)cc1)=N[C@@H](CC(=O)OC(C)(C)C)c1nnc(C)n1-2 [NCGC00250412-19],-310
2,C[C@H]1O[C@H](O[C@H]2[C@H](O)[C@@H](O)[C@@H](O[C@H]3[C@H](O)[C@@H](O)C(O)O[C@@H]3CO)O[C@@H]2CO)[C@H](O)[C@@H](O)[C@@H]1N[C@H]1C=C(CO)[C@@H](O)[C@H](O)[C@H]1O (stereo partly specified) + Cc1sc2c(c1C)C(c1ccc(Cl)cc1)=N[C@@H](CC(=O)OC(C)(C)C)c1nnc(C)n1-2 [NCGC00250412-19],-178
3,CNC1CCCN(c2c(F)cc3c(=O)c(C(=O)O)cn(C4CC4)c3c2OC)C1 (stereo unspecified) + Cc1sc2c(c1C)C(c1ccc(Cl)cc1)=N[C@@H](CC(=O)OC(C)(C)C)c1nnc(C)n1-2 [NCGC00250412-19],-128
4,Cn1c(CNc2ccc(C(=N)N)cc2)nc2cc(C(=O)N(CCC(=O)O)c3ccccn3)ccc21 + Cc1sc2c(c1C)C(c1ccc(Cl)cc1)=N[C@@H](CC(=O)OC(C)(C)C)c1nnc(C)n1-2 [NCGC00250412-19],-20.2
5,O=P1(NCCCl)OCCCN1CCCl (stereo unspecified) + Cc1sc2c(c1C)C(c1ccc(Cl)cc1)=N[C@@H](CC(=O)OC(C)(C)C)c1nnc(C)n1-2 [NCGC00250412-19],-10.1
6,COc1ccc(C(=O)c2c(C)n(CCN3CCOCC3)c3cc(I)ccc23)cc1 + Cc1sc2c(c1C)C(c1ccc(Cl)cc1)=N[C@@H](CC(=O)OC(C)(C)C)c1nnc(C)n1-2 [NCGC00250412-19],-72.5
7,CN1CCC(=C2c3ccccc3C=Cc3ccccc32)CC1 + Cc1sc2c(c1C)C(c1ccc(Cl)cc1)=N[C@@H](CC(=O)OC(C)(C)C)c1nnc(C)n1-2 [NCGC00250412-19],-150
8,N=C(N)NC(=N)NCCc1ccccc1 + Cc1sc2c(c1C)C(c1ccc(Cl)cc1)=N[C@@H](CC(=O)OC(C)(C)C)c1nnc(C)n1-2 [NCGC00250412-19],-24
9,CO[C@H]1/C=C/O[C@@]2(C)Oc3c(C)c(O)c4c(O)c(c(/C=N/N5CCN(C6CCCC6)CC5)c(O)c4c3C2=O)NC(=O)/C(C)=C\C=C\[C@H](C)[C@H](O)[C@@H](C)[C@@H](O)[C@@H](C)[C@H](OC(C)=O)[C@@H]1C + Cc1sc2c(c1C)C(c1ccc(Cl)cc1)=N[C@@H](CC(=O)OC(C)(C)C)c1nnc(C)n1-2 [NCGC00250412-19],-105
10,CCCc1cc(C(N)=S)ccn1 + Cc1sc2c(c1C)C(c1ccc(Cl)cc1)=N[C@@H](CC(=O)OC(C)(C)C)c1nnc(C)n1-2 [NCGC00250412-19],1.72
11,CCOC(=O)C1=C(C)NC2=C(C(=O)CC(C)(C)C2)C1c1ccc(-c2ccccc2)cc1 (stereo unspecified) + Cc1sc2c(c1C)C(c1ccc(Cl)cc1)=N[C@@H](CC(=O)OC(C)(C)C)c1nnc(C)n1-2 [NCGC00250412-19],153
12,C#Cc1cccc(Nc2ncnc3cc(OC)c(OCCCCCCC(=O)NO)cc23)c1 + Cc1sc2c(c1C)C(c1ccc(Cl)cc1)=N[C@@H](CC(=O)OC(C)(C)C)c1nnc(C)n1-2 [NCGC00250412-19],-276
13,O=C(O)[C@]1(Cc2cccc(Nc3nccs3)n2)CC[C@@H](Oc2cccc(Cl)c2F)CC1 + Cc1sc2c(c1C)C(c1ccc(Cl)cc1)=N[C@@H](CC(=O)OC(C)(C)C)c1nnc(C)n1-2 [NCGC00250412-19],-273
14,COc1cc2c(NC3CCN(C(C)C)CC3)nc(C3CCCCC3)nc2cc1OCCCN1CCCC1 + Cc1sc2c(c1C)C(c1ccc(Cl)cc1)=N[C@@H](CC(=O)OC(C)(C)C)c1nnc(C)n1-2 [NCGC00250412-19],-112
15,CC(C)CNc1ccnc(NCc2csc(-c3ccccc3)n2)n1 + Cc1sc2c(c1C)C(c1ccc(Cl)cc1)=N[C@@H](CC(=O)OC(C)(C)C)c1nnc(C)n1-2 [NCGC00250412-19],-59
16,COc1cc2c(Nc3ccc(NC(=O)c4ccccc4)cc3)ncnc2cc1OCCCN1CCOCC1 + Cc1sc2c(c1C)C(c1ccc(Cl)cc1)=N[C@@H](CC(=O)OC(C)(C)C)c1nnc(C)n1-2 [NCGC00250412-19],91.6
17,O=C(NCc1ccccc1)[C@H](Cc1ccccc1)NC(=O)[C@H]1O[C@@H]1C(=O)NCCc1ccc(O)cc1 + Cc1sc2c(c1C)C(c1ccc(Cl)cc1)=N[C@@H](CC(=O)OC(C)(C)C)c1nnc(C)n1-2 [NCGC00250412-19],-10.6
18,CN(CC(=O)N(Cc1ccc(C2CCCCC2)cc1)c1ccc(C(=O)O)c(O)c1)S(=O)(=O)c1c(F)c(F)c(F)c(F)c1F + Cc1sc2c(c1C)C(c1ccc(Cl)cc1)=N[C@@H](CC(=O)OC(C)(C)C)c1nnc(C)n1-2 [NCGC00250412-19],-91.4
